Library screen at single concentrations

Measurements from “University of Dundee, Small-Polar-MMV Screening Library” (2021), ChEMBL document CHEMBL3988442.

The filed quantity is “Percent Effect” (%). How 0% and 100% were set is not recorded. Most values in the screen are low, and negative values occur. The compounds are a random part of those screened. Two or more numbers in one place are separate tests of the same structure; such repeats can differ widely.

Mtb cholesterol medium: 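Growth of Mycobacterium tuberculosis over 4 days (cholesterol / DPPC medium with tyloxapol); the read-out is not stated. Tested at 50 µM. The record gives no direction; compounds that gave an IC50 in retests scored well above the rest, so higher reads as more growth inhibition. Size under these conditions: about 69,000 compounds, about 370 of them at 50% or above in at least one test.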
Mtb glucose medium: 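Growth of Mycobacterium tuberculosis over 3 days (7H9 medium with glucose and tyloxapol); the read-out is not stated. Tested at 50 µM. The record gives no direction; compounds that gave an IC50 in retests scored well above the rest, so higher reads as more growth inhibition. Of about 69,000 compounds tested this way, about 760 (1.1%) reached 50% or more in at least one test.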

compound	Mtb cholesterol medium	Mtb glucose medium
O=c1c2cccnc2ccn1Cc1nccn1C1CC1	-0.2502	-10.97
CSCCC(=O)N1CCCC1c1nnc2n1CCCCC2 (centres unmarked)	-7.993	-4.38
O=C(O)C(F)(F)F.O=C(O)C(F)(F)F.[H][C@@]12COC[C@]1(COCc1ccncc1)CN(Cc1cccc(OC)c1)C2	-11.42	22.75
CCCN1CCCn2nc(CNC(=O)C3CCOC3)cc2C1 (centres unmarked)	6.819 & -1.783	8.274 & 3.198
Cc1nc2ccn(C(C)C)c(=O)c2cc1C(=O)O	-18.99	5.935
Cc1cccc(C)c1OC1CCN(Cc2ccn(C)c(=O)c2)CC1	-0.1199	35.93
CN(Cc1nccn1C)S(=O)(=O)Cc1cccc(C#N)c1	2.367	16.73
CCn1ccnc1CN1CCN(CCc2ccccn2)CC1C (centres unmarked)	-0.3844	10.19
Cc1ocnc1C(=O)N(Cc1cccnc1)C[C@@H]1CCC(=O)N1	-4.827	12.1
O=C(O)C(F)(F)F.[H][C@@]12CCCO[C@]1([H])[C@H](NC(=O)c1cnccn1)CN(CCOC)C2	4.445	-9.141
O=C(O)[C@@H]1CN(Cc2cc3c(cc2Cl)OCO3)C[C@H]1C1CC1	20.28	13.38 & -1.411
O=C(O)C(F)(F)F.O=C(O)C(F)(F)F.c1cncc(-c2ccc3c(c2)CCC32CCN(Cc3ccco3)CC2)c1	54.78	63.92 & 66.71
CCc1noc(C)c1C(=O)N1CCCC(n2nc(C)nc2C)C1 (centres unmarked)	8.428	9.351
Cc1csc(C2(NCc3nc(-c4ccco4)oc3C)CCCC2)n1	-12.35	-9.154
CCC(C(=O)NCC1=CCN(C)CC1)c1ccccc1 (centres unmarked)	-28.15	-43.42
Cn1ccc(C(=O)N2CCCC2c2cc(CCO)[nH]n2)n1 (centres unmarked)	-7.176 & -8.561	7.534
Cn1ccnc1CN1CCCN(C(=O)c2ccc3c(c2)COC3)CC1	-24.53	22.7
CC(O)CN1CCC(CN(C)CCC(=O)NC2CCCC2)CC1 (centres unmarked)	-28.51	-19.54
CC(Cn1ccnc1)NS(=O)(=O)c1ccc(C#N)c(Cl)c1 (centres unmarked)	-16.55	2.488
CN1CCCN(S(=O)(=O)c2cccc(C(=O)N3CCCCCC3)c2)CC1	-0.6449	-31.84
c1ccc(-c2ncc(CNC3CCc4ncnn4C3)cn2)cc1 (centres unmarked)	-9.856	-23.26
O=C(Nc1nc2c(s1)CN(C(=O)NCc1cccs1)CC2)C1CC1	-0.9846	21.62 & 7.082
Cc1ccc(C(=O)NCCNCC2CNc3ccnn3C2)cc1 (centres unmarked)	9.114	8.597 & -3.539
O=C(Cn1cc(-c2ccccc2)cn1)NC(C1CC1)C1CC1	-5.851	15.46
CCOc1cc(F)ccc1NS(=O)(=O)c1cc(C)c(C(=O)O)s1	1.398	34
CCc1cnc(CNC(=O)N2CCCC(c3ncc[nH]3)C2)s1 (centres unmarked)	4.096	2.023 & 16.12
O=C(NCC(F)(F)F)c1ccncc1	-32	-9.355 & -8.466
Cc1nn(CCO)c(C)c1-c1cc(C(C)(C)C)nc(N)c1C#N	-9.253	13.34
Cc1cc(NC(=O)NCC(O)c2ccc(F)cc2)n(C)n1 (centres unmarked)	-3.113	-8.12
CCOCCN1CCN(Cc2nnc(C3CC3)o2)CC1C (centres unmarked)	10.95	22.08 & -2.361
COCCNC(=O)c1ccc(NCc2c(C)noc2C)cc1Cl	1.777	8.447
CCN(CCCc1ccccc1)CC1(C)Cc2c(N)nc(N)nc2O1 (centres unmarked)	-11.68 & -7.95	-24.77
N[C@H]1CN(C(=O)c2cnc3cc(Cl)ccc3c2O)C[C@@H]1C1CC1	13.64	28.01 & 3.11
O=C1CCCN1CCCC(=O)N1CCCCC1c1ccc(F)cc1 (centres unmarked)	2.027	-6.158 & 1.798
O=C(c1ccc2c(c1)OCO2)N1CCN(c2cnccn2)CC1	11.7	-7.467
COCCNC(=O)Cn1c(-c2ccco2)cc2cccnc21	18.52 & 4.207	13.49
Cn1ccc(C(=O)N2CCC(c3cc(CCO)n(C)n3)C2)n1 (centres unmarked)	-3.197	-10.86
CN(Cc1cnn(C)c1)C(=O)C1COc2ccccc2C1 (centres unmarked)	8.659	25.22
COCCC(=O)NCCn1nc(C2CCNC2)c2cccnc21.Cl (centres unmarked)	-24.47	-21.06
COC(=O)CCNC(=O)c1ccc(NC(=O)N(C)CC(C)C)cc1	-11.52 & -3.495	-1.407
CN1CCOC(CNCC(=O)NCCC2=CCCCC2)C1 (centres unmarked)	-45.86	14.65
O=C(NCC(F)F)c1ccc(S(=O)(=O)NCCc2ccncc2)cc1	-3.127	-19.2
CCOCCCNc1nc(CS(=O)(=O)c2ccccc2)cs1	-3.008	7.533 & -3.583
CC(C)(C)c1cnc(CN2CCN(c3ncccn3)CC2)o1	-11.87	-35.51 & -5.544
CN(Cc1cccnc1)C1CC2(CCN(C(=O)c3ccnnc3)CC2)C1	-3.075	-28.06
[H][C@@]12CCN(C(=O)c3cnccn3)C[C@@]1([H])O[C@H](c1nc(C)cs1)C2	3.257 & -13.86	-0.2188 & -21.93
c1ncn(CC2CCCN(Cc3noc(C4CC4)n3)C2)n1 (centres unmarked)	0.8334	6.602
Cn1cc(Cl)c(C(=O)N2CCCN(C3Cc4ccccc4C3)CC2)n1	-23.31	-40.12
CN(Cc1nnc(C2CC2)n1C)C1CCN(CCc2ccncc2)C1 (centres unmarked)	15.76 & -5.895	18.8
O=C(O)C(F)(F)F.O=C(O)C(F)(F)F.O=C(O)C(F)(F)F.[H][C@@]12C[C@@H](OCCN3CCCC3)CN1CCN(C(=O)Cc1ccccn1)C2	6.937 & -16.81	-31.08

For reference, 6 entries once more:

* CCCN1CCCn2nc(CNC(=O)C3CCOC3)cc2C1 (centres unmarked) : Mtb cholesterol medium: 6.819% & -1.783%; Mtb glucose medium: 8.274% & 3.198%
* CN(Cc1nccn1C)S(=O)(=O)Cc1cccc(C#N)c1 : Mtb cholesterol medium: 2.367%; Mtb glucose medium: 16.73%
* O=C(NCC(F)F)c1ccc(S(=O)(=O)NCCc2ccncc2)cc1 : Mtb cholesterol medium: -3.127%; Mtb glucose medium: -19.2%
* O=C(Cn1cc(-c2ccccc2)cn1)NC(C1CC1)C1CC1 : Mtb cholesterol medium: -5.851%; Mtb glucose medium: 15.46%
* O=C(O)C(F)(F)F.O=C(O)C(F)(F)F.[H][C@@]12COC[C@]1(COCc1ccncc1)CN(Cc1cccc(OC)c1)C2 : Mtb cholesterol medium: -11.42%; Mtb glucose medium: 22.75%
* Cc1nn(CCO)c(C)c1-c1cc(C(C)(C)C)nc(N)c1C#N : Mtb cholesterol medium: -9.253%; Mtb glucose medium: 13.34%